No constants are given. Whether binding was seen depends on the method and setting. In cells and extracts the contact can be indirect.
Legend:
[1] = molecular target: GIGANTEA, BiFC fusion (Arabidopsis thaliana) (UniProt Q9SQI2); assay: split reporter; BiFC in N. benthamiana leaves, transient expression, YFP signals under a confocal microscope; leaves untreated or treated with NaCl or Ca2+ (Supplemental Figure S6, Figure 6D, Supplemental Figure S10)
[2] = molecular target: GIGANTEA, HA-tagged (GI-HA) (Arabidopsis thaliana) (UniProt Q9SQI2); assay: co-IP; total proteins of N. benthamiana leaves transiently expressing both proteins; GI-HA precipitated with anti-HA on protein A agarose, SOS3 detected with anti-MYC; leaves untreated or treated with 100 mM NaCl for 8 h or 3 mM CaCl2; extraction buffer 100 mM Tris-HCl pH 7.5, 150 mM NaCl, 0.5% NP-40, 1 mM EDTA, 3 mM DTT; 4°C

Protein sequences, listed by entry. Tags and fused reporters are not part of them. Lines headed by an entry give the natural chain unless they say otherwise; changes in a name come on top.
UniProt Q9SQI2: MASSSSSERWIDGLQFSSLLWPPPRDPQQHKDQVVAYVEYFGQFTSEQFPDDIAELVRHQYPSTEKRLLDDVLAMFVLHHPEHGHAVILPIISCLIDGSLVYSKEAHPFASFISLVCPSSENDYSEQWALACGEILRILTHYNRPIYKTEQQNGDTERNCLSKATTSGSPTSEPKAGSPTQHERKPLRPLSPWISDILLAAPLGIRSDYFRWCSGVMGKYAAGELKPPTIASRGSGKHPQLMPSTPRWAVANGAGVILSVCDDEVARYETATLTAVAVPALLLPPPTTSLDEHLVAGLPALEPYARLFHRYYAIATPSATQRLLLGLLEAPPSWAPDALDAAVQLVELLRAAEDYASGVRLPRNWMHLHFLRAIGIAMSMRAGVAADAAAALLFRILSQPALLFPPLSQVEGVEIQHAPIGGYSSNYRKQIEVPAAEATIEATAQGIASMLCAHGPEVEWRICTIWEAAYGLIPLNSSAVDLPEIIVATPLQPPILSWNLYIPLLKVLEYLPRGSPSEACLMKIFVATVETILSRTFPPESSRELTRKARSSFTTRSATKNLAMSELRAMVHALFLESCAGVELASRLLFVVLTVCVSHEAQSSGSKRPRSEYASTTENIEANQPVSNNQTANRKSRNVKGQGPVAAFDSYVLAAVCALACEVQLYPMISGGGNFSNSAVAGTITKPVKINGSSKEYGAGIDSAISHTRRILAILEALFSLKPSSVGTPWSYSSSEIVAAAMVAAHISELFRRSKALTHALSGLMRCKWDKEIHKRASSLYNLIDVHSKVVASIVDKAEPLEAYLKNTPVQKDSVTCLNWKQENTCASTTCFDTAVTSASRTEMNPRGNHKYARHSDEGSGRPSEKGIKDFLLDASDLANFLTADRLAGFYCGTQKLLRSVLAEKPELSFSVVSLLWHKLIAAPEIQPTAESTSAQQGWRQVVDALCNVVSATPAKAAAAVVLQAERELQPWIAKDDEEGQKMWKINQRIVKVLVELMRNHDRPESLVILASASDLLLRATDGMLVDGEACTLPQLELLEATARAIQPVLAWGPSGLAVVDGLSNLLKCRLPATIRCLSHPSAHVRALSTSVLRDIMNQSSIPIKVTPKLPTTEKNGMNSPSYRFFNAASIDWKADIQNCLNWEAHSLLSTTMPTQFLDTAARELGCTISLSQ
UniProt O81223: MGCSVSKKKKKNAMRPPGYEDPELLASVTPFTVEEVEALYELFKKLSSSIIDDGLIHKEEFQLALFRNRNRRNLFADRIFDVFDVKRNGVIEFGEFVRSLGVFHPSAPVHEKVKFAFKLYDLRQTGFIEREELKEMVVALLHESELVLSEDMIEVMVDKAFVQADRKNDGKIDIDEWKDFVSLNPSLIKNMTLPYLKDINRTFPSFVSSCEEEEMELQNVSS

Question: For “mutant protein SOS3-1, BiFC fusion (from UniProt O81223)”, which binding [1] is on record?
Answer: no binding

Question: “mutant protein SOS3-1, MYC-tagged (MYC-SOS3-1) (from UniProt O81223)” was tested. Which binding [2] did it give?
Answer: no binding
